{"source": "PubChem BioAssay AID1508588 | Peter MacCallum Cancer Centre – 2020", "test": "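Which gene losses make BRAF-mutant melanoma cells more responsive to vemurafenib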 (primary screen)", "cells": "human WM266.4 melanoma cells (BRAF V600 mutant)", "reagents": "siRNA pool against human genes, 40 nM", "timing": "96 h from transfection to read-out", "treatment": "vemurafenib 300 nM (about IC25), added 48 h after transfection, for 48 h; comparison arm got DMSO vehicle only", "measurement": "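Cell gain (DAPI nuclei at end minus before drug, mean of two replicates) and medium lactate by absorbance per cell, both as ratio to non-targeting siRNA, also grouped into fold-change classes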", "direction": "cell gain with vemurafenib: higher = more cell gain than with non-targeting siRNA; lactate per cell with vemurafenib: higher = more lactate made per cell", "call rule": "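a knock-down counts as enhancing when its fold-change classes with vehicle and with vemurafenib, taken together, show a stronger drug effect on cell gain or lactate per cell; exact class pairs not stated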", "calls": "active = enhances vemurafenib effect; inactive = no enhancement seen", "note": "Here is an unselected part of about 18,000 reagents. 790 of them (4.4%) count as active. 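Calls rest on a combination of fold-change classes in drug and vehicle arms, not all shown here.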 A reagent listed more than once was tested more than once; the source does not tell the runs apart. Reagent sequences are not shown."}
{"gene symbol": "MAST4 (GeneID 375449)", "cell gain with vemurafenib": 0.79, "lactate per cell with vemurafenib": 1.02, "call": "inactive"}
{"gene symbol": "PIK3R6 (GeneID 146850)", "cell gain with vemurafenib": 0.8, "lactate per cell with vemurafenib": 0.85, "call": "inactive"}
{"gene symbol": "F7 (GeneID 2155)", "cell gain with vemurafenib": 0.26, "lactate per cell with vemurafenib": 1.69, "call": "inactive"}
{"gene symbol": "WDR53 (GeneID 348793)", "cell gain with vemurafenib": 0.5, "lactate per cell with vemurafenib": 1.71, "call": "inactive"}
{"gene symbol": "MNT (GeneID 4335)", "cell gain with vemurafenib": 0.31, "lactate per cell with vemurafenib": 1.54, "call": "inactive"}
{"gene symbol": "DUSP21 (GeneID 63904)", "cell gain with vemurafenib": 0.96, "lactate per cell with vemurafenib": 0.74, "call": "inactive"}
{"gene symbol": "DUSP21 (GeneID 63904)", "cell gain with vemurafenib": 0.59, "lactate per cell with vemurafenib": 1.1, "call": "inactive"}
{"gene symbol": "CD3E (GeneID 916)", "cell gain with vemurafenib": 0.36, "lactate per cell with vemurafenib": 1.52, "call": "inactive"}
{"gene symbol": "MTF2 (GeneID 22823)", "cell gain with vemurafenib": 0.78, "lactate per cell with vemurafenib": 0.44, "call": "inactive"}
{"gene symbol": "SERPINA13P (GeneID 388007)", "cell gain with vemurafenib": 0.68, "lactate per cell with vemurafenib": 0.68, "call": "inactive"}
{"gene symbol": "GSTA3 (GeneID 2940)", "cell gain with vemurafenib": 0.61, "lactate per cell with vemurafenib": 1.18, "call": "inactive"}
{"gene symbol": "BRAF (GeneID 673)", "cell gain with vemurafenib": -0.28, "lactate per cell with vemurafenib": 0.12, "call": "inactive"}
{"gene symbol": "RAB3IP (GeneID 117177)", "cell gain with vemurafenib": 0.56, "lactate per cell with vemurafenib": 0.84, "call": "inactive"}
{"gene symbol": "CELF4 (GeneID 56853)", "cell gain with vemurafenib": 1.03, "lactate per cell with vemurafenib": 0.88, "call": "inactive"}
{"gene symbol": "CRISP2 (GeneID 7180)", "cell gain with vemurafenib": 0.15, "lactate per cell with vemurafenib": 1.12, "call": "inactive"}
{"gene symbol": "MLYCD (GeneID 23417)", "cell gain with vemurafenib": 0.65, "lactate per cell with vemurafenib": 1.21, "call": "inactive"}
{"gene symbol": "CSN3 (GeneID 1448)", "cell gain with vemurafenib": 0.27, "lactate per cell with vemurafenib": 1.2, "call": "inactive"}
{"gene symbol": "CCDC9 (GeneID 26093)", "cell gain with vemurafenib": 0.31, "lactate per cell with vemurafenib": 0.76, "call": "inactive"}
{"gene symbol": "C4orf50 (GeneID 389197)", "cell gain with vemurafenib": 0.2, "lactate per cell with vemurafenib": 1.46, "call": "inactive"}
{"gene symbol": "VPS26C (GeneID 10311)", "cell gain with vemurafenib": 0.52, "lactate per cell with vemurafenib": 0.74, "call": "inactive"}
{"gene symbol": "RXFP1 (GeneID 59350)", "cell gain with vemurafenib": 0.57, "lactate per cell with vemurafenib": 0.22, "call": "inactive"}
{"gene symbol": "RNASEL (GeneID 6041)", "cell gain with vemurafenib": 0.61, "lactate per cell with vemurafenib": 1.25, "call": "inactive"}
{"gene symbol": "PDE4C (GeneID 5143)", "cell gain with vemurafenib": 1, "lactate per cell with vemurafenib": 0.97, "call": "inactive"}
{"gene symbol": "PDE4A (GeneID 5141)", "cell gain with vemurafenib": 0.74, "lactate per cell with vemurafenib": 1.32, "call": "inactive"}
{"gene symbol": "LXN (GeneID 56925)", "cell gain with vemurafenib": 0.44, "lactate per cell with vemurafenib": 1.35, "call": "inactive"}
{"gene symbol": "RASD1 (GeneID 51655)", "cell gain with vemurafenib": 0.37, "lactate per cell with vemurafenib": 1.15, "call": "inactive"}
{"gene symbol": "OR51G1 (GeneID 79324)", "cell gain with vemurafenib": 0.64, "lactate per cell with vemurafenib": 0.43, "call": "inactive"}
{"gene symbol": "RFPL2 (GeneID 10739)", "cell gain with vemurafenib": 0.96, "lactate per cell with vemurafenib": 0.73, "call": "inactive"}
{"gene symbol": "CDC42SE1 (GeneID 56882)", "cell gain with vemurafenib": 0.76, "lactate per cell with vemurafenib": 0.77, "call": "inactive"}
{"gene symbol": "ZNF761 (GeneID 388561)", "cell gain with vemurafenib": 0.2, "lactate per cell with vemurafenib": 2.27, "call": "inactive"}
{"gene symbol": "FLVCR1 (GeneID 28982)", "cell gain with vemurafenib": 0.65, "lactate per cell with vemurafenib": 1.05, "call": "inactive"}
{"gene symbol": "NKX3-2 (GeneID 579)", "cell gain with vemurafenib": 0.6, "lactate per cell with vemurafenib": 1.24, "call": "inactive"}
{"gene symbol": "FHL3 (GeneID 2275)", "cell gain with vemurafenib": 0.46, "lactate per cell with vemurafenib": 0.56, "call": "inactive"}
{"gene symbol": "IL31 (GeneID 386653)", "cell gain with vemurafenib": 0.41, "lactate per cell with vemurafenib": 1.32, "call": "inactive"}
{"gene symbol": "CRYGC (GeneID 1420)", "cell gain with vemurafenib": 0.61, "lactate per cell with vemurafenib": 1.03, "call": "inactive"}
{"gene symbol": "CIAPIN1 (GeneID 57019)", "cell gain with vemurafenib": 0.48, "lactate per cell with vemurafenib": 1.26, "call": "inactive"}
{"gene symbol": "LYN (GeneID 4067)", "cell gain with vemurafenib": 0.52, "lactate per cell with vemurafenib": 1.73, "call": "inactive"}
{"gene symbol": "NUDT6 (GeneID 11162)", "cell gain with vemurafenib": 0.3, "lactate per cell with vemurafenib": 1.15, "call": "inactive"}
{"gene symbol": "ZNF441 (GeneID 126068)", "cell gain with vemurafenib": 0.34, "lactate per cell with vemurafenib": 1.39, "call": "inactive"}
{"gene symbol": "OR3A1 (GeneID 4994)", "cell gain with vemurafenib": 1.09, "lactate per cell with vemurafenib": 0.46, "call": "inactive"}
{"gene symbol": "PKDREJ (GeneID 10343)", "cell gain with vemurafenib": 0.93, "lactate per cell with vemurafenib": 0.2, "call": "inactive"}
{"gene symbol": "ATF7IP (GeneID 55729)", "cell gain with vemurafenib": 0.59, "lactate per cell with vemurafenib": 0.78, "call": "inactive"}
{"gene symbol": "DENND3 (GeneID 22898)", "cell gain with vemurafenib": 0.33, "lactate per cell with vemurafenib": 1.12, "call": "inactive"}
{"gene symbol": "GPATCH2 (GeneID 55105)", "cell gain with vemurafenib": 0.66, "lactate per cell with vemurafenib": 0.83, "call": "inactive"}
{"gene symbol": "RP1L1 (GeneID 94137)", "cell gain with vemurafenib": 0.79, "lactate per cell with vemurafenib": 0.08, "call": "inactive"}
{"gene symbol": "ACADS (GeneID 35)", "cell gain with vemurafenib": 0.72, "lactate per cell with vemurafenib": 1.31, "call": "inactive"}
{"gene symbol": "SKIC3 (GeneID 9652)", "cell gain with vemurafenib": 0.84, "lactate per cell with vemurafenib": 0.11, "call": "active"}
{"gene symbol": "DKK1 (GeneID 22943)", "cell gain with vemurafenib": 0.84, "lactate per cell with vemurafenib": 0.62, "call": "inactive"}
{"gene symbol": "CMKLR2 (GeneID 2825)", "cell gain with vemurafenib": 0.57, "lactate per cell with vemurafenib": 0.84, "call": "inactive"}
{"gene symbol": "SPATA6 (GeneID 54558)", "cell gain with vemurafenib": 0.48, "lactate per cell with vemurafenib": 0.8, "call": "inactive"}
{"gene symbol": "VPS45 (GeneID 11311)", "cell gain with vemurafenib": 0.02, "lactate per cell with vemurafenib": 0.44, "call": "active"}
{"gene symbol": "TRIM56 (GeneID 81844)", "cell gain with vemurafenib": 0.86, "lactate per cell with vemurafenib": 0.78, "call": "inactive"}

Records above called active:
{"gene symbol": "SKIC3 (GeneID 9652)", "cell gain with vemurafenib": 0.84, "lactate per cell with vemurafenib": 0.11, "call": "active"}
{"gene symbol": "VPS45 (GeneID 11311)", "cell gain with vemurafenib": 0.02, "lactate per cell with vemurafenib": 0.44, "call": "active"}
